Measured values published in patent US20220381657A1, “METHOD FOR PREPARING BIOLOGICAL MATERIAL HAVING EXCELLENT LIGHT-TRANSMITTING PROPERTY” (RIKEN, priority 2016, published 2022).

Target: EGFP (Aequorea victoria, UniProt P42212, F64L/H231L/S65T)
Type: biochemical
Details: stated in the description
Method: (FIG. 7). […] A mouse hemisphere was treated with use of each 10 wt % chemical solution at 37° C. for 3 days, and was washed with PBS. Subsequently, the mouse hemisphere was subjected to refractive index adjustment with CUBIC-2A.

With `CC(C)(C)CC(C)(C)c1ccc(OCCOCC[N+](C)(C)Cc2ccccc2)cc1` [#0441, Benzethonium Chloride] the “retention of fluorescence of a fluorescent protein” value was “allows fluorescence of a fluorescent protein to be retained”.
